Laboratory results as given in article PMC7364817.

The chains behind the UniProt entries cited, without tags or fusion partners.
UniProt Q14204: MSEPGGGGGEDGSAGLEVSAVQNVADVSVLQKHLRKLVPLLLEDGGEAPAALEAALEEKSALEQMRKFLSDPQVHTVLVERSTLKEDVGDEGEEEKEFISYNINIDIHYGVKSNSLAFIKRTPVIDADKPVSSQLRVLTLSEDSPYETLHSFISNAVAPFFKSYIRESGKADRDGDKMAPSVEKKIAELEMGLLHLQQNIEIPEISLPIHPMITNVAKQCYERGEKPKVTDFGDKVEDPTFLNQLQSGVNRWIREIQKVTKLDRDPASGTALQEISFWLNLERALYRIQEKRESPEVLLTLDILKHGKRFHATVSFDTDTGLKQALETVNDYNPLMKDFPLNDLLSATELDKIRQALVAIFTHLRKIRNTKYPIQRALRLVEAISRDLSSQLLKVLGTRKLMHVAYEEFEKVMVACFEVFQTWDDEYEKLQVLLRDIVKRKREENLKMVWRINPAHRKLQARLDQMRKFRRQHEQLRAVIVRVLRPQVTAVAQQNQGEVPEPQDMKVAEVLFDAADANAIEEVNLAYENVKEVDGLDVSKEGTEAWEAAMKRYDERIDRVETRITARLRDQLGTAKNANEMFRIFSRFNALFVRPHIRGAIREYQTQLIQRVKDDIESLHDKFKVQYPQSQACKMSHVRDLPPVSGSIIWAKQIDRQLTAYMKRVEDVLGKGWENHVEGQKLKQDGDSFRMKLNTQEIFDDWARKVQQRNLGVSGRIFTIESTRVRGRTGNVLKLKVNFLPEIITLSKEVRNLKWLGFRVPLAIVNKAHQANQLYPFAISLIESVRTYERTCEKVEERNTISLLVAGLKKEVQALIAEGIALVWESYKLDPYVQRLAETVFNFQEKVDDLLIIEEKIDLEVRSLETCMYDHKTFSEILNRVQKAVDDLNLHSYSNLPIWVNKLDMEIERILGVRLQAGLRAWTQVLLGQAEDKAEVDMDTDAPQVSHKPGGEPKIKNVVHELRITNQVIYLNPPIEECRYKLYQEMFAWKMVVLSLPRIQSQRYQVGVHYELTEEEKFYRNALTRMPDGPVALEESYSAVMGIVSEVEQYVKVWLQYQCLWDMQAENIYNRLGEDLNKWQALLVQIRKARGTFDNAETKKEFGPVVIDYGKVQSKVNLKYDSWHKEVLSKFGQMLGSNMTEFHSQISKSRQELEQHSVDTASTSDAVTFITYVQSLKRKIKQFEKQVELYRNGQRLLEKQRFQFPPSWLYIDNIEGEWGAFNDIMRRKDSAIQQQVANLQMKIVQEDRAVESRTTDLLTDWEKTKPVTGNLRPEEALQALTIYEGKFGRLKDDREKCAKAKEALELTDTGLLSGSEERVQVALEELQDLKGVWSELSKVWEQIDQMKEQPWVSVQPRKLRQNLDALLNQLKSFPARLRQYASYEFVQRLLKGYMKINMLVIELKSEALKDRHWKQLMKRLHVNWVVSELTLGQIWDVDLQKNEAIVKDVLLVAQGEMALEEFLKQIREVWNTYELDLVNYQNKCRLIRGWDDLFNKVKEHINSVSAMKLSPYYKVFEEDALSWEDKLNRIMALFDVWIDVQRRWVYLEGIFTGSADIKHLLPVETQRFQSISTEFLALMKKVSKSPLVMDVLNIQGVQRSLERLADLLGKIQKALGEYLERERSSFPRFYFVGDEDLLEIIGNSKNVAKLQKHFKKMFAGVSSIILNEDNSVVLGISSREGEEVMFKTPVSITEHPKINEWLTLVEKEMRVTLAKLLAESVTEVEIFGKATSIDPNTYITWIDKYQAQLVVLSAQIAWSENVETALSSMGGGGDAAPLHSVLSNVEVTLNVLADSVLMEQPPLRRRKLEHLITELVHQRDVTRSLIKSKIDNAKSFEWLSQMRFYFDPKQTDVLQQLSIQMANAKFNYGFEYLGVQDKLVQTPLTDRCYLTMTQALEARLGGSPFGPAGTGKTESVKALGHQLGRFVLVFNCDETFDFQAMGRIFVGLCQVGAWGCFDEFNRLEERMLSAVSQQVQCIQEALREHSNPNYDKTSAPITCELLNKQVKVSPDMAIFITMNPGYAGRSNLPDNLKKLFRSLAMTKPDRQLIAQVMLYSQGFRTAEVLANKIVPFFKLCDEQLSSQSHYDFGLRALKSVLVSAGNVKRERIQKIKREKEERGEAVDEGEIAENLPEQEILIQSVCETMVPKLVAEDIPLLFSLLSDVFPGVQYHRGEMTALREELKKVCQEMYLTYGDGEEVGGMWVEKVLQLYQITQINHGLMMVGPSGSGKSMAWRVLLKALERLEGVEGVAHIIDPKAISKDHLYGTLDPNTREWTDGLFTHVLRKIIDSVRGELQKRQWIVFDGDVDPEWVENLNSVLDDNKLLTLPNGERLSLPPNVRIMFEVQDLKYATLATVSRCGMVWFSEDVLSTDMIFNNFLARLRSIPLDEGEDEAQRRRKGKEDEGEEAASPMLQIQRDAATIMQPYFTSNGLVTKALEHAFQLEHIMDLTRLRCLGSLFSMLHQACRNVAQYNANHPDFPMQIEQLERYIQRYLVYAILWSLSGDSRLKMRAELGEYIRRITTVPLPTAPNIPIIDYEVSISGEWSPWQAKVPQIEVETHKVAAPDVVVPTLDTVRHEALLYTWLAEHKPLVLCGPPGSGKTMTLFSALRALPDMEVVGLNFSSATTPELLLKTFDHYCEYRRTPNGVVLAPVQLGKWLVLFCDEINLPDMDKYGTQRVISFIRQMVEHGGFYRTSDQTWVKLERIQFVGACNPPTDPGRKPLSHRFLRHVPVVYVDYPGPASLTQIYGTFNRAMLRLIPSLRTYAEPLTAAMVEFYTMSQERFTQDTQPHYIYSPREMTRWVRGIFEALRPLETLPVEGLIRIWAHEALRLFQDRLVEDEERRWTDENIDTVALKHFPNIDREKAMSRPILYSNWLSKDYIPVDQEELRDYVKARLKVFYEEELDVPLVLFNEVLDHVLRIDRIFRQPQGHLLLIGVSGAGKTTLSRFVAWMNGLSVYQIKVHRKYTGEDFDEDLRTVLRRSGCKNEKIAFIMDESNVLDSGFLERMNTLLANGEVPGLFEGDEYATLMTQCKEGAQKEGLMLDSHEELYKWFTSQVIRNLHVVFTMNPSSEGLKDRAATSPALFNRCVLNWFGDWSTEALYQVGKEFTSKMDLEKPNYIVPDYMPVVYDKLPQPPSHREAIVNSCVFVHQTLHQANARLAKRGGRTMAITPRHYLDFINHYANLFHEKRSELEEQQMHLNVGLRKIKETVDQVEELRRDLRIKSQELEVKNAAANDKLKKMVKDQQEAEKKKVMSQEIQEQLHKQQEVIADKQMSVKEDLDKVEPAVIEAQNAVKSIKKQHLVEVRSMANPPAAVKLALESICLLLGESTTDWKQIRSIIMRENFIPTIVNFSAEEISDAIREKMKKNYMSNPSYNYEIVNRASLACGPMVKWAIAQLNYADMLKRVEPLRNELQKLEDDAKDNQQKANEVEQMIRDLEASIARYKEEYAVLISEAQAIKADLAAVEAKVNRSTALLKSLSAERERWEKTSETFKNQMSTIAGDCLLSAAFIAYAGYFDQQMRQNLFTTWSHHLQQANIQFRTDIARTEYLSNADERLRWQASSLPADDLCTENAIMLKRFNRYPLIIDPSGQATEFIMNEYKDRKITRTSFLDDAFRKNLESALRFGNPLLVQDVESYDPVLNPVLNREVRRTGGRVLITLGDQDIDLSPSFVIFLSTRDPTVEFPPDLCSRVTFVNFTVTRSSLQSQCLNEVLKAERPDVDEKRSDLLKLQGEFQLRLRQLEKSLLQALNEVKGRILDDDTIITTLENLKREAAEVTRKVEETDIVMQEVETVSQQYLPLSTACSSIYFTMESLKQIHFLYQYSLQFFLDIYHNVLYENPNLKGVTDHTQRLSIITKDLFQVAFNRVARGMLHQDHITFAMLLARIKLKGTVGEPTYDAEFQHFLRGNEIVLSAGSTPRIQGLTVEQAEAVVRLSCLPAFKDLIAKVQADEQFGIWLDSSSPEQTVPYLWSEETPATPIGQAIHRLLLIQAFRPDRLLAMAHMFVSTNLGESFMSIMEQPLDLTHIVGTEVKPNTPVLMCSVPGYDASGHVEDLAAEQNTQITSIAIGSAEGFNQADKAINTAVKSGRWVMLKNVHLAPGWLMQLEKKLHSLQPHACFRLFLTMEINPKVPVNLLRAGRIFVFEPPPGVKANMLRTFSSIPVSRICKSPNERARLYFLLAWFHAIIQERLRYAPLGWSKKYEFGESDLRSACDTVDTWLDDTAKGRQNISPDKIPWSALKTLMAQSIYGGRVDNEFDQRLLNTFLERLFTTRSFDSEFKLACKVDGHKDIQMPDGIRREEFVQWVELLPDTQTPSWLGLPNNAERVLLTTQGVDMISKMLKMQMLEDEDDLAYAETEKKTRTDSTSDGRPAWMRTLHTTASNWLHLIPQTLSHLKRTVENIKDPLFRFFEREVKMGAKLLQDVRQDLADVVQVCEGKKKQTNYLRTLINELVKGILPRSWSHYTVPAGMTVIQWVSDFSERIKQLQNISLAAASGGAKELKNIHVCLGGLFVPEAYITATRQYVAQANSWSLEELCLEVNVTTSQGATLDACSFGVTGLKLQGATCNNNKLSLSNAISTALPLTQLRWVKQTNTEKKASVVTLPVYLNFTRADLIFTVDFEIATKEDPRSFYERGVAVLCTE
UniProt O14818: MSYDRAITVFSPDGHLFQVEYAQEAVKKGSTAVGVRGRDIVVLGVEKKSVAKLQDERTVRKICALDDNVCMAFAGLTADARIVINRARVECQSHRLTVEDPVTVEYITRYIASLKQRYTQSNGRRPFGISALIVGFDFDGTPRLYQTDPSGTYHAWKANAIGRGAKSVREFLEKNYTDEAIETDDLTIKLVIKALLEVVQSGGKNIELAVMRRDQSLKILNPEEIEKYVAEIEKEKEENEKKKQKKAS
UniProt P07814: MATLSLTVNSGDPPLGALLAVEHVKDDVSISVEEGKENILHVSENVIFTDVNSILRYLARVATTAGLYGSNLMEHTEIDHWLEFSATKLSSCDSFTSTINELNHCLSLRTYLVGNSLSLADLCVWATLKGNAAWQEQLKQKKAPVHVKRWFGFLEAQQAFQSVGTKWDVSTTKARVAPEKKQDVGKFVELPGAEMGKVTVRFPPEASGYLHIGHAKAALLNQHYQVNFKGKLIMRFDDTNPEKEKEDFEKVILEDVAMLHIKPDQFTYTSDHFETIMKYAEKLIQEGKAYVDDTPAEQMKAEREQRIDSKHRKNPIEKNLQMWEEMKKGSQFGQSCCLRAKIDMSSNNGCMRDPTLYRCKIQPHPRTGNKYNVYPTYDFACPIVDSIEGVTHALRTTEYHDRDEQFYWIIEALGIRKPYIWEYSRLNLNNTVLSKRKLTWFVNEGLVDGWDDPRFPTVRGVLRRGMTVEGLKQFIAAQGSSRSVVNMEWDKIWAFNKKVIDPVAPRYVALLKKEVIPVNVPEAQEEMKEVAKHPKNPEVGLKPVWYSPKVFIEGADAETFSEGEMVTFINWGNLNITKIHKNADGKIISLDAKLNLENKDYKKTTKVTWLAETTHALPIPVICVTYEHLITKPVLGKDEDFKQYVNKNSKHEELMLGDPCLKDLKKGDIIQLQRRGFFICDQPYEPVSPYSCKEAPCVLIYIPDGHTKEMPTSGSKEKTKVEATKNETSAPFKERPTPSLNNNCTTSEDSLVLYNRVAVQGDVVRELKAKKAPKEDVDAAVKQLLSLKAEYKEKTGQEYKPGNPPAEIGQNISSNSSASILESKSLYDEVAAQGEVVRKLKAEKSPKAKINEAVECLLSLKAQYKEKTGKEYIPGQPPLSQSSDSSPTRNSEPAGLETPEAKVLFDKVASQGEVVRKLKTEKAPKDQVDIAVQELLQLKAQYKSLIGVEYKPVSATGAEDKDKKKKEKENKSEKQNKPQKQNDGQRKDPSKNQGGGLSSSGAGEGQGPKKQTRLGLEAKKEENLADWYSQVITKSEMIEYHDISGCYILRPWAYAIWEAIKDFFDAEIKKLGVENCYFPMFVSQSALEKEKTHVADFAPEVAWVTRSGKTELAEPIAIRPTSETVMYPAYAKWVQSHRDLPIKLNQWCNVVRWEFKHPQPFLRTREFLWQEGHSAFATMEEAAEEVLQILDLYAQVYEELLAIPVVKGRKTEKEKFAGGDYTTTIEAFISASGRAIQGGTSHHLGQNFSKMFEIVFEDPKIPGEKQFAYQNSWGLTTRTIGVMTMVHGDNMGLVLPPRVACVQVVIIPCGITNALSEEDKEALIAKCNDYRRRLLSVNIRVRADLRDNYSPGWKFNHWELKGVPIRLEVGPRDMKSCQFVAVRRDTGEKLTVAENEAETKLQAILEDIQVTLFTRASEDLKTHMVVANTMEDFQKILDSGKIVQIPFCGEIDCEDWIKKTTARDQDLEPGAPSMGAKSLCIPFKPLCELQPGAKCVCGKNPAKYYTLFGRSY
UniProt Q9UHV9: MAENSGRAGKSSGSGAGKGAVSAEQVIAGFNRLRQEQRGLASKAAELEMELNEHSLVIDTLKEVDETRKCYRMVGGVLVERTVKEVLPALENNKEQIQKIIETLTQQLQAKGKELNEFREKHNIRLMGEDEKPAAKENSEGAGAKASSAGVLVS

What follows are substances tested against T1, FLAG-tagged SMCR8 (Smith-Magenis Syndrome Chromosome Region, Candidate 8) (UniProt Q8TEV9) (assay: affinity purification with mass spectrometry; FL-SMCR8, C9orf72-FL or empty vector transfected in HEK 293T; α-FLAG agarose IP from whole cell lysates with or without RNase; LC-MS/MS; hits with three or more spectra and not detected in vector only control).
T1 sequence: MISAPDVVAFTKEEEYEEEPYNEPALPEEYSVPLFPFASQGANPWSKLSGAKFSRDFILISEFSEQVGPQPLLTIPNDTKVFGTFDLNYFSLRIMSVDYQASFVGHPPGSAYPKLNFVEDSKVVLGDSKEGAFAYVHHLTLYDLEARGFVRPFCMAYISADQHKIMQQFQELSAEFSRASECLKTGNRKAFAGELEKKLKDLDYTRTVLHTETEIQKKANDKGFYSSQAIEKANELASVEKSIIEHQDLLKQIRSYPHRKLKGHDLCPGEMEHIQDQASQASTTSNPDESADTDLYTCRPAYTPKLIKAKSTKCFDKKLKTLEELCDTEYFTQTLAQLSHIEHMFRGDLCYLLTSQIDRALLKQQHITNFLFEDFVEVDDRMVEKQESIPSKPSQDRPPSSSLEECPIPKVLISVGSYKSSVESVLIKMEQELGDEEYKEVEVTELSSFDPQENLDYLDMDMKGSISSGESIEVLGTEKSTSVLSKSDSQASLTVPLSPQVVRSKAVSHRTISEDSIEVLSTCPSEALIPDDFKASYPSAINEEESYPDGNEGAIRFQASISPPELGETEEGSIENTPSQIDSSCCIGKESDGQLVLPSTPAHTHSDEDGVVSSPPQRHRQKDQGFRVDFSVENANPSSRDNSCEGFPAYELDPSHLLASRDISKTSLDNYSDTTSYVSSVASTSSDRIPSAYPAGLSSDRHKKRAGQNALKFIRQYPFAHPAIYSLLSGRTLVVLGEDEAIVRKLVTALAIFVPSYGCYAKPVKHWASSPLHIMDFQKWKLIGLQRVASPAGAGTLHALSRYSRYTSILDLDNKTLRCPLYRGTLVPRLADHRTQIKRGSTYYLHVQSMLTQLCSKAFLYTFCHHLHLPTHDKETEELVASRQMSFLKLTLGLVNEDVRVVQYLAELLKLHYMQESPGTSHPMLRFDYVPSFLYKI

Row | Substance | binding
1 | carbamoyl-phosphate synthetase 2, aspartate transcarbamylase, and dihydroorotase (from UniProt P27708 1-2225) | binds
2 | chromodomain helicase DNA binding protein 4 (from UniProt Q14839 1-1912) | binds
3 | dynein cytoplasmic 1 heavy chain 1 (from UniProt Q14204 1-4646) | binds
4 | eukaryotic translation initiation factor 3 subunit F (from UniProt O00303 1-357) | binds
5 | eukaryotic translation initiation factor 4 gamma 1 (from UniProt Q04637 1-1599) | binds
6 | heat shock protein family A member 4 (from UniProt P34932 1-840) | binds
7 | heat shock protein family B member 1 (from UniProt P04792 1-205) | binds
8 | leucyl-tRNA synthetase (from UniProt Q9P2J5 1-1176) | binds
9 | major histocompatibility complex, class I, A (from UniProt P04439 25-365) | binds
10 | nucleoporin 98 (from UniProt P52948) | binds
11 | nucleoporin 153 (from UniProt P49790 1-1475) | binds
12 | nucleoporin 210 (from UniProt Q8TEM1 27-1887) | binds
13 | proteasome 26S subunit, ATPase 4 (from UniProt P43686 1-418) | binds
14 | proteasome 26S subunit, ATPase 6 (from UniProt P62333 1-389) | binds
15 | proteasome 26S subunit, non-ATPase 3 (from UniProt O43242 1-534) | binds
16 | proteasome 26S subunit, non-ATPase 6 (from UniProt Q15008 1-389) | binds
17 | proteasome 26S subunit, non-ATPase 13 (from UniProt Q9UNM6 1-376) | binds
18 | proteasome subunit alpha 5 (from UniProt P28066 1-241) | binds
19 | proteasome subunit alpha 6 (from UniProt P60900 1-246) | binds
20 | proteasome subunit alpha 7 (from UniProt O14818 1-248) | binds
21 | proteasome subunit beta 2 (from UniProt P49721 1-201) | binds
22 | ring finger protein 2, , E3 ubiquitin protein ligase (from UniProt Q99496 1-336) | binds
23 | solute carrier family 3 member 2 (from UniProt P08195 1-529) | binds
24 | structural maintenance of chromosomes 3 (from UniProt Q9UQE7 1-1217) | binds
25 | thioredoxin domain containing 5 (from UniProt Q8NBS9 33-432) | binds
26 | threonyl-tRNA synthetase 2, mitochondrial (putative) (human (endogenous in HEK 293T)) | binds
27 | tubulin beta 4A class IVa (from UniProt P04350 1-444) | binds
28 | ubiquitin specific peptidase 7 (from UniProt Q93009 1-1102) | binds
29 | ubiquitin specific peptidase 9, X-linked (from UniProt Q93008 1-2554) | binds

Results, then the substance that gave them:

Row | binding | Substance
30 | binds | cell division cycle 7 (from UniProt O00311 1-574)
31 | binds | coatomer protein complex subunit alpha (from UniProt P53621 1-1224)
32 | binds | cyclin dependent kinase 5 (from UniProt Q00535 1-292)
33 | binds | cyclin dependent kinase inhibitor 2A (human (endogenous in HEK 293T))
34 | binds | damage specific DNA binding protein 1 (from UniProt Q16531 1-1140)
35 | binds | dynein cytoplasmic 1 intermediate chain 2 (from UniProt Q13409 1-638)
36 | binds | eukaryotic translation initiation factor 3 subunit E (from UniProt P60228 1-445)
37 | binds | eukaryotic translation initiation factor 4A1 (from UniProt P60842 1-406)
38 | binds | exportin 1 (from UniProt O14980 1-1071)
39 | binds | glutamyl-prolyl-tRNA synthetase (from UniProt P07814 1-1512)
40 | binds | heat shock protein family H (Hsp110) member 1 (from UniProt Q92598 1-858)
41 | binds | karyopherin subunit beta 1 (from UniProt Q14974 1-876)
42 | binds | kelch like ECH associated protein 1 (from UniProt Q14145 1-624)
43 | binds | major histocompatibility complex, class I, B (from UniProt P01889 25-362)
44 | binds | midasin AAA ATPase 1 (from UniProt Q9NU22 1-5596)
45 | binds | minichromosome maintenance complex component 2 (from UniProt P49736 1-904)
46 | binds | mutS homolog 6(MSH6) (from UniProt P52701 1-1360)
47 | binds | nucleoporin 205 (from UniProt Q92621 1-2012)
48 | binds | polo like kinase 1 (from UniProt P53350 1-603)

Row | binding | Substance
49 | binds | prefoldin subunit 2 (from UniProt Q9UHV9 1-154)
50 | binds | proliferating cell nuclear antigen (from UniProt P12004 1-261)
51 | binds | proteasome 26S Subunit, ATPase 5 (from UniProt P62195 1-406)
52 | binds | proteasome 26S subunit, ATPase 1 (from UniProt P62191 1-440)
53 | binds | proteasome 26S subunit, ATPase 3 (from UniProt P17980 1-439)
54 | binds | proteasome 26S subunit, non-ATPase 2 (from UniProt Q13200 1-908)
55 | binds | proteasome 26S subunit, non-ATPase 7 (from UniProt P51665 1-324)
56 | binds | proteasome 26S subunit, non-ATPase 12 (from UniProt O00232 1-456)
57 | binds | proteasome 26S subunit, non-ATPase 14 (from UniProt O00487 1-310)
58 | binds | proteasome activator subunit 3 (from UniProt P61289 1-254)
59 | binds | proteasome subunit alpha 1 (from UniProt P25786 1-263)
60 | binds | proteasome subunit alpha 3 (from UniProt P25788 1-255)
61 | binds | replication factor C subunit 3 (from UniProt P40938 1-356)
62 | binds | small ubiquitin-like modifier 3 (from UniProt P55854 1-92)
63 | binds | tubulin beta 3 class III (from UniProt Q13509 1-450)
64 | binds | tubulin beta 6 class V (from UniProt Q9BUF5 1-446)
65 | binds | tyrosine 3-monooxygenase/tryptophan 5-monooxygenase activation protein zeta (from UniProt P63104 1-245)
66 | binds | ubiquitin protein ligase E3 component n-recognin 5 (from UniProt O95071 1-2799)

These are yes or no findings as the source states them, for the method shown. Binding seen in cells or lysates may run through a third protein. A yes stands for co-enrichment or nearness to the bait. Other partners may have been found. Tags and fused reporters may be left off the sequences shown.
